# The list shows only some results of the screen, not a fair sample: it gathers tests that were run many times, whatever their T/C, doses with no T/C, and many T/C values between a quarter and a half above the control. Further doses and runs are listed elsewhere. T/C: endpoint of the treated group in % of that of the vehicle group. Some doses have a count of surviving animals in place of a T/C: the source files T/C as zero there, which appears to mark a toxic dose or a test without result, not a measured value. Some survivor counts are full or nearly so, which does not show that the dose was tolerated: the source hardly ever lists a survival T/C far under the control, and the zero likely stands for such cases as well. Counts of survivors are from the toxicity check (mostly the fifth day) where no day follows; animals may have died later. Schedules are NCI's codes, taken here to give the interval after Q, in days (D) or hours (H), and the number of doses after X. For survival time, this PubChem deposit counts one and a half times the control or more as active, and values a quarter to a half above the control carry no call in these data; other NCI protocols may use other cut-offs. Some entries were tested several times; the values are given in rising order. Some T/C values carry the count of animals alive at the toxicity check (mostly the fifth day); where none is given, no animal had died by that day.
# Test system: L1210 leukemia ip in BDF1 mice, survival T/C
# Test: NCI In Vivo Anticancer Drug Screen. Data for tumor model L1210 Leukemia (intraperitoneal) in B6D2F1 (BDF1) mice
# Conditions: higher T/C = longer survival
# [1] = T/C endpoint: mean survival time, dose: 62.0 mg/kg/injection, schedule: Q01DX015 (ip), vehicle: carboxymethylcellulose (CMC)
# [2] = T/C endpoint: mean survival time, dose: 200.0 mg/kg/injection, schedule: Q01DX005 (ip), vehicle: saline
structure (smiles),measurement,setting,value
Nc1nc(=S)c2ncn(C3CC(O)C(CO)O3)c2[nH]1 (stereo not drawn),T/C,"T/C endpoint: mean survival time, dose: 40.0 mg/kg/injection, schedule: Q01DX001 (ip), vehicle: saline",140 % of control
same,T/C,"T/C endpoint: mean survival time, dose: 40.0 mg/kg/injection, schedule: Q04DX003 (ip), vehicle: saline",144 % of control
same,T/C,"T/C endpoint: mean survival time, dose: 48.0 mg/kg/injection, schedule: Q01DX005 (oral), vehicle: saline",125 % of control
same,T/C,"T/C endpoint: mean survival time, dose: 50.0 mg/kg/injection, schedule: Q01DX005 (ip), vehicle: saline",126 % of control [5 of 6 alive]
same,T/C,"T/C endpoint: mean survival time, dose: 60.0 mg/kg/injection, schedule: Q08DX002 (oral), vehicle: saline",140 % of control
same,T/C,[1],141 % of control
same,survivor count,[1],6 of 6
same,T/C,"T/C endpoint: mean survival time, dose: 64.0 mg/kg/injection, schedule: Q01DX001 (ip), vehicle: saline with Tween-80",147 % of control
same,T/C,"T/C endpoint: mean survival time, dose: 80.0 mg/kg/injection, schedule: Q01DX001 (ip), vehicle: saline",141 % of control
same,T/C,"T/C endpoint: mean survival time, dose: 97.0 mg/kg/injection, schedule: Q01DX001 (ip), vehicle: saline with Tween-80",134 % of control
same,survivor count,"T/C endpoint: mean survival time, dose: 100.0 mg/kg/injection, schedule: Q01DX005 (ip), vehicle: saline",6 of 6
same,T/C,"T/C endpoint: mean survival time, dose: 120.0 mg/kg/injection, schedule: Q08DX002 (oral), vehicle: saline",131 % of control
same,survivor count,"T/C endpoint: mean survival time, dose: 125.0 mg/kg/injection, schedule: Q01DX015 (ip), vehicle: carboxymethylcellulose (CMC)",4 of 6
same,T/C,[2],134 % of control
same,survivor count,[2],2 of 6
same,T/C,"T/C endpoint: mean survival time, dose: 240.0 mg/kg/injection, schedule: Q08DX002 (oral), vehicle: saline",136 % of control
same,survivor count,"T/C endpoint: mean survival time, dose: 250.0 mg/kg/injection, schedule: Q01DX015 (ip), vehicle: carboxymethylcellulose (CMC)",2 of 6
same,T/C,"T/C endpoint: mean survival time, dose: 480.0 mg/kg/injection, schedule: Q08DX002 (oral), vehicle: saline",128 % of control
same,survivor count,"T/C endpoint: mean survival time, dose: 500.0 mg/kg/injection, schedule: Q01DX015 (ip), vehicle: carboxymethylcellulose (CMC)",0 of 6
same,T/C,"T/C endpoint: median survival time, dose: 0.12 mg/kg/injection, schedule: Q03HX024 (ip), vehicle: saline",127 % of control
same,T/C,"T/C endpoint: median survival time, dose: 0.13 mg/kg/injection, schedule: Q03HX024 (ip), vehicle: saline",127 % of control
same,T/C,"T/C endpoint: median survival time, dose: 0.25 mg/kg/injection, schedule: Q03HX024 (ip), vehicle: saline, evaluated on day 5",127 and 132 % of control
same,T/C,"T/C endpoint: median survival time, dose: 0.25 mg/kg/injection, schedule: Q03HX024 (ip), vehicle: saline, evaluated on day 30",127 % of control
same,T/C,"T/C endpoint: median survival time, dose: 0.25 mg/kg/injection, schedule: Q03HX024 (ip), vehicle: saline, evaluated on day 33",132 % of control
same,T/C,"T/C endpoint: median survival time, dose: 0.5 mg/kg/injection, schedule: Q03HX024 (ip), vehicle: saline, evaluated on day 5",137 and 149 % of control
same,T/C,"T/C endpoint: median survival time, dose: 0.5 mg/kg/injection, schedule: Q03HX024 (ip), vehicle: saline, evaluated on day 30",137 % of control [7 of 8 alive]
same,T/C,"T/C endpoint: median survival time, dose: 0.5 mg/kg/injection, schedule: Q03HX024 (ip), vehicle: saline, evaluated on day 33",149 % of control
same,T/C,"T/C endpoint: median survival time, dose: 1.0 mg/kg/injection, schedule: Q03HX024 (ip), vehicle: saline, evaluated on day 5",159 and 165 % of control
same,T/C,"T/C endpoint: median survival time, dose: 1.0 mg/kg/injection, schedule: Q03HX024 (ip), vehicle: saline, evaluated on day 30",159 % of control
same,T/C,"T/C endpoint: median survival time, dose: 1.0 mg/kg/injection, schedule: Q03HX024 (ip), vehicle: saline, evaluated on day 33",165 % of control
same,T/C,"T/C endpoint: median survival time, dose: 2.0 mg/kg/injection, schedule: Q03HX024 (ip), vehicle: saline, evaluated on day 5","104, 108, 146, 183 % of control"
same,T/C,"T/C endpoint: median survival time, dose: 2.0 mg/kg/injection, schedule: Q03HX024 (ip), vehicle: saline, evaluated on day 30",108 and 183 % of control
same,T/C,"T/C endpoint: median survival time, dose: 2.0 mg/kg/injection, schedule: Q03HX024 (ip), vehicle: saline, evaluated on day 33",104 and 146 % of control
same,T/C,"T/C endpoint: median survival time, dose: 4.0 mg/kg/injection, schedule: Q03HX024 (ip), vehicle: saline, evaluated on day 5","82, 102, 115, 127 % of control"
same,T/C,"T/C endpoint: median survival time, dose: 4.0 mg/kg/injection, schedule: Q03HX024 (ip), vehicle: saline, evaluated on day 30",115 and 127 % of control
same,T/C,"T/C endpoint: median survival time, dose: 4.0 mg/kg/injection, schedule: Q03HX024 (ip), vehicle: saline, evaluated on day 33",102 % of control
same,survivor count,"T/C endpoint: median survival time, dose: 4.0 mg/kg/injection, schedule: Q03HX024 (ip), vehicle: saline",8 of 8
same,T/C,"T/C endpoint: median survival time, dose: 8.0 mg/kg/injection, schedule: Q03HX024 (ip), vehicle: saline, evaluated on day 5",123 and 124 % of control
same,T/C,"T/C endpoint: median survival time, dose: 8.0 mg/kg/injection, schedule: Q03HX024 (ip), vehicle: saline, evaluated on day 30",124 % of control
same,T/C,"T/C endpoint: median survival time, dose: 8.0 mg/kg/injection, schedule: Q03HX024 (ip), vehicle: saline, evaluated on day 33",123 % of control
same,T/C,"T/C endpoint: median survival time, dose: 16.0 mg/kg/injection, schedule: Q03HX024 (ip), vehicle: saline, evaluated on day 5",142 and 160 % of control
same,T/C,"T/C endpoint: median survival time, dose: 16.0 mg/kg/injection, schedule: Q03HX024 (ip), vehicle: saline, evaluated on day 30",160 % of control
same,T/C,"T/C endpoint: median survival time, dose: 16.0 mg/kg/injection, schedule: Q03HX024 (ip), vehicle: saline, evaluated on day 33",142 % of control
